In patent US20250249113A1 (Debiopharm Research & Manufacturing S.A., priority 2022, published 2025):

Assay: general procedure: hybrid (solid and solution phase) peptide synthesis; 2-CTC resin; Fmoc-Xxx-Wang resin (loading 0.60 mmol/g; Bachem); diisopropyl carbodiimide/HOBT
Conditions: TFA salt; for purity (crude or final not stated): whole synthesis
[1] = conjugation step, UV purity (UPLC-MS)
[2] = late stage modification step, UV purity (UPLC-MS)
[3] = coupling step, UV purity (UPLC-MS)

Question: With DM1-Ac-Cit-Lys(D-Arg-ma)-Tyr-OH as the substance, how does the conjugation yield (conjugation step) read?
Answer: 18%

Question: And the “final HPLC purity” value [1]?
Answer: 88% UV purity

Question: For AF-Arg-Lys(PEG4-Mal)-Phe-OH, which “purity (crude or final not stated)” value (UV purity (UPLC-MS)) is on record?
Answer: 96%

Question: For AF-Arg-Phe-Lys(PEG4-Mal-Cys-Ac)-OH, which “purity (crude or final not stated)” value (UV purity (UPLC-MS)) is on record?
Answer: 90%

Question: Which “purity (crude or final not stated)” value (UV purity (UPLC-MS)) does the source give for “DM1-Mal-Phe-Cit-Lys(PEG4-Mal-Cys-Ac)-Phe-OH” here?
Answer: 97%

Question: For AF-Arg-Lys(PEG4-Mal-Cys-Ac)-Phe-OH, which “purity (crude or final not stated)” value (UV purity (UPLC-MS)) is on record?
Answer: 94%

Question: For Boc-Cit-Lys(D-Arg(Pbf)-ma)-Tyr-OH, which step yield (late stage modification step) is on record?
Answer: 29%

Question: What about the “final HPLC purity” value [2] of the same substance?
Answer: 88% UV purity

Question: What does the source list for Exatecan-Suc-Phe-Cit-Lys-Tyr(OtBu)-OtBu?
Answer: step yield (late stage modification step): 13%; final HPLC purity [2]: 97% UV purity

Question: What does the source list for Boc-Cit-Lys(D-Arg(Pbf))-Tyr-OH?
Answer: step yield (late stage modification step): 46%; final HPLC purity [2]: 90% UV purity

Question: Which “purity (crude or final not stated)” value (UV purity (UPLC-MS)) does the source give for AF-Arg-Phe-Lys(PEG4-Mal)-OH here?
Answer: 98%

Question: For “DM1-Mal-Phe-Cit-Phe-Lys(PEG4-Mal-Cys-Ac)-OH”, which “purity (crude or final not stated)” value (UV purity (UPLC-MS)) is on record?
Answer: 94%

Question: Which results are given for Boc-Cit-Lys(Fmoc-D-Arg(Pbf))-Tyr-OMe?
Answer: step yield (coupling step): 73%; final HPLC purity [3]: 95% UV purity

Question: For “Exatecan-Suc-Phe-Cit-Lys(Mtt)-Tyr(OtBu)-OtBu”, which conjugation yield (conjugation step) is on record?
Answer: 46%

Question: What about the “final HPLC purity” value [1] of the same substance?
Answer: 98% UV purity

Question: What does the source list for H-Phe-Cit-Lys(Mtt)-Tyr(OtBu)-OtBu?
Answer: step yield (late stage modification step): 81%; final HPLC purity [2]: 95% UV purity

Question: With H-Cit-Lys(D-Arg-ma)-Tyr-OH as the substance, how does the step yield (late stage modification step) read?
Answer: 69%

Question: And the “crude HPLC purity” value [2]?
Answer: 90% UV purity

Question: With Fmoc-Phe-Cit-Lys(Mtt)-Tyr(OtBu)-OtBu as the substance, how does the step yield (coupling step) read?
Answer: 92%

Question: What about the “final HPLC purity” value [3] of the same substance?
Answer: 96% UV purity

Question: Which “purity (crude or final not stated)” value (UV purity (UPLC-MS)) does the source give for “DM1-Mal-Phe-Lys-Lys(PEG4-Mal-Cys-Ac)-Phe-OH” here?
Answer: 98%
